Data published in PubChem BioAssay AID1347076 (National Center for Advancing Translational Sciences (NCATS), 2019).
Values joined by “and” are separate entries in the source; they are usually repeats but may differ in a detail not shown here. Equal entries are not always repeated. About 13,000 (3.2%) of roughly 400,000 compounds were called active. The inconclusive results got no clear call from the source; some entries with a clear call stand among them for comparison. The call rests on the fitted dose curve; in most records, active means well fitted cell-killing curve with a large enough effect; inconclusive means small, poorly fitted or top-dose-only effect, or effect the other way; inactive means flat fitted curve, though single readings scatter. A potency beside an inconclusive call is a rough fit, not a confirmed value.
On the % scale 0 is the no-effect control and ±100 the full control effect; potency means the concentration at half of the fitted maximal effect.

Assay: qHTS assay for MDR1-selective chemotherapeutics: Primary screen using the drug-selected MDR subline cells KB-V1; further: nearly all actives have a fitted effect of over 60% in size
Details: KB-V1 MDR cells viability, CellTiter-Glo, 72 h; activity change, negative = cytotoxicity: at 46.1 µM (top of the series)
Summary of the method: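 qHTS viability screen in drug-selected KB-V1 MDR cells: 72 h compound treatment at 37 degrees C, ATP luminescence end point.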
In the case of `COc1ccccc1-c1cc(C(=O)NCc2ccc(F)cc2)no1`, the Potency is reported as active: 16.4 µM.
For `C[C@@H]1NC(=O)c2cc([N+](=O)[O-])cc(I)c2NCCCC[C@@H](C(N)=O)NC(=O)[C@H](CC(N)=O)NC1=O`, the Potency was “inactive”.
In the case of `COc1ccc(C2=NN(C(=O)c3ccccc3)C(c3cccc([N+](=O)[O-])c3)C2)cc1` (configuration not stated), the Potency is reported as inconclusive: 2.06 µM [cytotoxic, partial curve, poor fit].
For `Cn1c(/C(C#N)=C(\O)c2ccccc2Cl)nc2ccccc21`, the Potency was inconclusive: 16.4 µM [cytotoxic, single point].
In the case of `NC(=S)NNC(=O)Nc1cccc(Cl)c1`, the Potency is reported as “inactive”.
With `COc1ccc(C2C(C(=O)NCc3ccccc3)=C(C)Nc3ncnn32)cc1OC` (configuration not stated) the activity change, negative = cytotoxicity was inconclusive: 34%.
With `COc1ccccc1CNC(=O)C1CC2Cn3c(nc4ccccc43)C2N1C` (configuration not stated) the Potency was inconclusive: 16.4 µM [cytotoxic, single point].
In the case of `COc1ccccc1NC(=O)c1cc2c(CO)cnc(C)c2oc1=Nc1ccccc1`, the Potency is reported as inconclusive: 29.1 µM [cytotoxic, single point].
With `CCOC(=O)c1c(C)[nH]c(C)c1C(=O)CSc1nc2ccccc2c(=O)n1-c1ccccc1C` the Potency was inconclusive: 10.3 µM [cytotoxic, partial curve, poor fit].
With `O=C(NCC1CCCO1)c1cnc(Cl)c(Cl)c1` (configuration not stated) the Potency was inconclusive: 23.1 µM [rising, partial curve, poor fit].
With `CCC1CCCCN1C(=O)COC(=O)c1n[nH]c2ccccc12` (configuration not stated) the Potency was inconclusive: 0.013 µM [cytotoxic, full curve].
With `COC1CCN(C(=O)c2ccc(OC3CCN(Cc4ccccn4)CC3)cc2)CC1` the Potency was inconclusive: 20.6 µM [cytotoxic, partial curve, poor fit].
In the case of `O=C(NCCSc1ccccn1)c1ccc(Cl)cc1Cl`, the Potency is reported as inconclusive: 10.3 µM [cytotoxic, partial curve].
In the case of `COc1ccc(NC(=S)N(CCCN2CCOCC2)Cc2ccccn2)cc1`, the Potency is reported as inconclusive: 18.4 µM [cytotoxic, single point].
In the case of `CC(C)Oc1ccc(C(=O)NC2(C(F)(F)F)NC(=O)N(CCCc3ccccc3)C2=O)cc1` (configuration not stated), the Potency is reported as active: 9.2 µM.
In the case of `COC(=O)C(COC(=O)c1c(F)cccc1F)NC(=O)c1c(F)cccc1F` (configuration not stated), the Potency is reported as inconclusive: 23.1 µM [rising, single point].
In the case of `CCCCC(=O)NC(=S)NNC(=O)c1ccc(Cl)cc1Cl`, the Potency is reported as inconclusive: 7.31 µM [cytotoxic, partial curve].
With `Cc1ccc(S(=O)(=O)N(C)Cc2ccc(C(=O)NN=C(CC(C)C)CC(C)C)cc2)cc1` the Potency was active: 2.31 µM.
With `CC(C)(C)OC(=O)[C@H](Cc1ccccc1)NC(=O)c1nc[nH]c1C(=O)NC1CCN(C(=O)OC(C)(C)C)CC1` the Potency was inconclusive: 29.1 µM [cytotoxic, partial curve, poor fit].
In the case of `CCOc1cccc(-c2nnc(SCC(=O)Nc3cc(C)ccc3OC)n2N)c1`, the Potency is reported as “inactive”.
For `O=c1c2ccccc2ncn1CCOCCOc1cccc(Br)c1`, the activity change, negative = cytotoxicity was inconclusive: 42.5%.
In the case of `Cc1nn(Cc2cccc(C(=O)NC34CC5CC(CC(C5)C3)C4)c2)c(C)c1Br`, the Potency is reported as inconclusive: 5.8 µM [cytotoxic, partial curve, poor fit].
For `COc1ccccc1CN1COc2ccc3c(C)cc(=O)oc3c2C1`, the Potency was inconclusive: 16.4 µM [cytotoxic, partial curve].
With `NC1=Nc2cccc3cccc1c23` the Potency was inconclusive: 20.6 µM [cytotoxic, single point].
In the case of `CN(C)c1oc(-c2ccc(OCc3ccccc3)cc2)nc1C#N`, the Potency is reported as active: 20.6 µM.
For `O=[N+]([O-])c1ccc(N=Cc2ccc(Br)c([N+](=O)[O-])c2)cc1`, the Potency was inconclusive: 25.9 µM [cytotoxic, single point].
For `O=C(/C=C1\OCc2cc(OCc3ccccc3)ccc21)OCc1ccccc1`, the Potency was inconclusive: 20.6 µM [cytotoxic, partial curve, poor fit].
In the case of `O=[N+]([O-])c1ccc(Nc2nc(NC3CCCCC3)nc(N3CCCC3)n2)cc1`, the Potency is reported as “inactive”.
For `COc1cc(-c2cc(C(=O)N3CCN(c4ccccn4)CC3)c3ccccc3n2)cc(OC)c1OC`, the Potency was inconclusive: 25.9 µM [cytotoxic, partial curve, poor fit].
In the case of `O=C(Nc1ccc(N2CCOCC2)c(Cl)c1)c1cc2ccccc2o1`, the Potency is reported as inconclusive: 18.4 µM [cytotoxic, single point].
With `COc1ccc(S[C@@H](CCN2CC[C@H](NC(=O)OCc3ccccc3)CCC2=O)c2ccccc2)cc1` the Potency was inconclusive: 14.6 µM [cytotoxic, partial curve] and inconclusive: 29.1 µM [cytotoxic, single point].
For `O=Cc1ccc(-c2ccccc2OC(F)(F)F)o1`, the Potency was inconclusive: 29.1 µM [rising, single point].
With `c1ccc(N2CCN(c3ncnc4sc5c(c34)CCC5)CC2)cc1` the Potency was inconclusive: 18.4 µM [cytotoxic, single point].
In the case of `CC(C)CCC(CCN1CCOCC1)c1ccc2c(c1)OCO2` (configuration not stated), the Potency is reported as active: 20.6 µM.
For `O=C(CCOc1cccc(Br)c1)Nc1ccc(F)c(S(=O)(=O)N2CCOCC2)c1`, the Potency was active: 23.1 µM.
In the case of `O=C(CN(Cc1ccccc1)S(=O)(=O)c1ccc2c(c1)OCCO2)N/N=C/c1ccc(F)cc1`, the Potency is reported as “inactive”.
In the case of `C=C1C(O)[C@@H]2O[C@]3(CC[C@H](/C=C/C(C)[C@@H]4CC(C)=CC5(O[C@H](C[C@@](C)(O)CO)CCC5O)O4)O3)CC[C@H]2O[C@@H]1C(O)CC(C)[C@H]1OC2(CCCCO2)CCC1C` (some centres not stated), the Potency is reported as inconclusive: 29.1 µM [cytotoxic, single point].
With `CC(=O)NS(=O)(=O)c1ccc(NC(=O)/C=C/c2ccccc2Cl)cc1` the Potency was inconclusive: 29.1 µM [rising, single point].
In the case of `Cc1nc(C)c(C(=O)C2=C(O)C(=O)N(CCCn3ccnc3)C2c2ccc(Cl)cc2)s1` (configuration not stated), the Potency is reported as inconclusive: 18.4 µM [rising, single point].
In the case of `COc1cccc(Cn2c(=O)n(-c3ccc(C)c(F)c3)c(=O)c3sc4ccccc4c32)c1`, the Potency is reported as “inactive”.
For `COc1cccc(NC(=O)N2CCC(n3c(C)nc4cccnc43)CC2)c1`, the Potency was “inactive”.
With `CC(=O)/C(=N/Nc1ccc(Br)cc1)N1CCCc2ccccc21` the Potency was “inactive”.
For `O=C(Cn1cnc2cc([N+](=O)[O-])ccc2c1=O)Nc1ccccc1Cl`, the Potency was inconclusive: 0.58 µM [rising, full curve].
For `COc1ccccc1-c1nnc(SC2CCc3ccccc3NC2=O)s1` (configuration not stated), the Potency was active: 5.8 µM.
For `CCCCNc1c(-c2ccc(-c3ccc(OC)cc3)c(OC)c2)nc2ccccn12`, the Potency was inconclusive: 23.1 µM [cytotoxic, single point].
For `Cc1cc([N+](=O)[O-])cc(/C=N/n2c(C)nc3ccccc3c2=O)c1O`, the Potency was inconclusive: 18.4 µM [cytotoxic, single point].
In the case of `CCCS(=O)(=O)NC(=O)C1(C)CCN(C(=O)c2ccnc(Cl)c2)C1` (configuration not stated), the Potency is reported as “inactive”.
For `Cc1cc(Nc2ccccc2)n(-c2cccc(Cl)c2)n1`, the Potency was “inactive”.
For `O=C(Nc1cccc2ccccc12)C1CCN(C(=O)Cc2ccccc2)CC1`, the Potency was inconclusive: 29.1 µM [rising, partial curve, poor fit].
In the case of `COc1ccc(F)cc1C(=O)C1CCCN(C(=O)CCc2ccccn2)C1` (configuration not stated), the Potency is reported as inconclusive: 18.4 µM [cytotoxic, partial curve].
In the case of `CCOc1ccc(N(CC(=O)NCc2ccccc2C)S(C)(=O)=O)cc1`, the Potency is reported as “inactive”.
In the case of `c1ccc(C2=Nc3c(ccc4ccccc34)C(c3ccncc3)=NN2)cc1`, the Potency is reported as inconclusive: 20.6 µM [cytotoxic, partial curve].
With `Cc1c(C=O)c(C=O)c(C)n1Cc1ccccc1` the Potency was inconclusive: 29.1 µM [cytotoxic, single point].
In the case of `COC(=O)c1cccnc1N1CCN(c2ccccc2F)CC1`, the Potency is reported as inconclusive: 11.6 µM [cytotoxic, partial curve].
For `Cc1ccc2[nH]c3c(c2c1)CN(C(=O)CN1CCN(c2cccc(C)c2C)CC1)CC3`, the Potency was active: 20.6 µM.
For `Cc1cc(C(=O)CCl)c(C)n1-c1cccc(S(=O)(=O)N2CCOCC2)c1`, the Potency was active: 16.4 µM.
For `CCn1c2ccccc2c2cc(NC(=O)c3ccc([N+](=O)[O-])cc3)ccc21`, the Potency was “inactive”.
For `CCN(CC)S(=O)(=O)c1ccc(N(C)Cc2cccc(OC)c2OC)nc1`, the Potency was active: 6.51 µM.
In the case of `CCOC(=O)c1cc(-c2ccccc2)n(CC(=O)Nc2ccc(OC)cc2OC)c1C`, the Potency is reported as “inactive”.
For `N#Cc1ccc(NC2c3ccccc3CC2O)cc1` (configuration not stated), the Potency was active: 18.4 µM.
With `CSc1ccc(CNc2ncc(-c3cccc([N+](=O)[O-])c3)n2C)cc1` the Potency was “inactive”.
For `O=C(NCc1ccccc1)C1Cc2c(-c3ccc(Cl)cc3)ccnc2O1` (configuration not stated), the Potency was active: 1.46 µM.
For `COc1cc2c(cc1Cl)C(=O)C(F)(c1ccccc1)C(=O)N2` (configuration not stated), the Potency was inconclusive: 1.64 µM [rising, full curve, poor fit].
For `COc1ccc(C(C(=O)NCC2CCCO2)N(C(=O)CNC(=O)c2ccco2)c2cc(C)cc(C)c2)cc1OC` (configuration not stated), the Potency was inconclusive: 0.651 µM [rising, partial curve].
With `COc1ccc(S(=O)(=O)N2CCCCCC2)cc1C(=O)N(C)Cc1ccc(OC)c(OC)c1OC` the Potency was inconclusive: 9.2 µM [cytotoxic, partial curve].
With `Cc1ccc(-n2c(O)c(/C=C3/C(c4ccccc4)=Nc4ccccc43)c(=O)[nH]c2=O)cc1` the Potency was inconclusive: 4.61 µM [cytotoxic, partial curve, poor fit].
In the case of `COc1ccccc1-c1cc2nc(-c3ccccc3)cc(N3CCN(C(=O)c4ccco4)CC3)n2n1`, the Potency is reported as inconclusive: 23.1 µM [cytotoxic, single point].
